Source: patent US20210040181A1 (Bristol-Myers Squibb, published 2021)
These are yes or no findings as the source states them, for the method shown. Some results given as binding are weak or reduced against the parent protein; the word gives no strength.

B1: 679B01 (designed binder)
chain: VSDVPRDLEVVAATPTSLLISWLLLGAPCRYYRITYGETGGNSPVQEFTVPWMGLTATISGLKPGVDYTITVYAVTSERAPCVKVWRCPISINYRT
notes: 10Fn3-based clone expressed in E. coli as His6 tagged protein; not shown: His6 tag
B2: 679F03 (designed binder)
chain: VSDVPRDLEVVAATPTSLLISWYHYYSGSQRYYRITYGETGGNSPVQEFTVPHEVYTATISGLKPGVDYTITVYAVTDYAYKEYEEYPISINYRT
notes: as for B1
B3: 679F09 (designed binder)
chain: VSDVPRDLEVVAATPTSLLISWQVPRPMYQRYYRITYGETGGNSPVQEFTVPGGVRTATISGLKPGVDYTITVYAVTDYMHSEYRQYPISINYRT
notes: 10Fn3-based clone expressed in E. coli as His6 tagged protein; also called clone 679F09; not shown: His6 tag
B4: 867B04 (designed binder, not shown: small tags and cut ends)
chain: VSDVPRDLEVVAATPTSLLISWYSRYQSYRYYRITYGETGGNSPVQEFTVPHASNTATISGLKPGVDYTITVYAVTVDYTAVQVSYPISINYRT
B5: 867B05 (designed binder, not shown: small tags and cut ends)
chain: B4 chain

Each binder was assayed against EGFR-Fc (R&D Systems), ectodomain of human EGFR as a Fc fusion (human) (UniProt P00533) (assay: direct binding ELISA, single point).

binding, binds:
B1
B2
B3
B4
B5
